Some of the results follow. The exact form of the protein is not confirmed.

For this assay, the target named is T1, ELF2 (UniProt Q15723).
T1 sequence: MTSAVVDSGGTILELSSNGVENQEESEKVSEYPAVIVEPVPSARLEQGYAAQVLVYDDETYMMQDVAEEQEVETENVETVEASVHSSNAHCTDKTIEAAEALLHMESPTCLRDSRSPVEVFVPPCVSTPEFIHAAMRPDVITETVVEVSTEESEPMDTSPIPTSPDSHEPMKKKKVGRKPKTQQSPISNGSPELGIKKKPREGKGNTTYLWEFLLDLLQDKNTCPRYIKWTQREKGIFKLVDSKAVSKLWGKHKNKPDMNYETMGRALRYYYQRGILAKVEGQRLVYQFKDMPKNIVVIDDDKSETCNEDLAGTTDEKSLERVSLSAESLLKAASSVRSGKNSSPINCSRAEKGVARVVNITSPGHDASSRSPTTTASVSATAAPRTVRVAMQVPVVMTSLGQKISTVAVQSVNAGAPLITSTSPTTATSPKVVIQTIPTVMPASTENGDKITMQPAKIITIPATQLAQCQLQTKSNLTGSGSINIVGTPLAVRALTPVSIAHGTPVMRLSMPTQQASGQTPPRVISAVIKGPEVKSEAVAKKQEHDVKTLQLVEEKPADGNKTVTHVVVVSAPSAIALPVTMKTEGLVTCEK
Briefly: DAPPL (digital affinity profiling via proximity ligation, sequencing). Particulars: 10 mM Tris-HCl pH 7.5, 50 mM NaCl, 1 mM DTT, 4% glycerol, room temperature, 30 min; GST-TFs on glutathione beads, 16-mer random dsDNA library, 0.1% …; high values mean tight binding; double strand, one strand shown; scale: fold enrichment (6-mer frequency, TF over GST control).
The sequence CACAAG yielded a binding signal of 1.1.

Sequence CTATTT gave a binding signal of 1.86.

In turn, TTAGCC came in with a binding signal of 0.956.

On to ATTGTC, for which the binding signal is 1.11.

CGATGG showed a binding signal of 1.26.

As to TTGAGA, the binding signal turned out to be 0.842.

Take CTAACC: the binding signal is 1.14.

GATTAG had a binding signal of 0.813.

Sequence GCATTA gave a binding signal of 0.844.

TCCGTC returned a binding signal of 1.37.

As to CTTGCG, the binding signal came to 1.33.

TAACTA showed a binding signal of 1.27.

CTGCAT showed a binding signal of 1.36.

Consider TAATTC, for which the binding signal is 1.52.

Consider GACATT, for which the binding signal came to 1.16.

CACGCG displayed a binding signal of 1.09.

Sequence AACATT returned a binding signal of 1.26.

Turning to ATCCAC, the binding signal worked out at 1.19.

Consider CATAAG, for which the binding signal stood at 0.913.

TCATAA came in with a binding signal of 0.988.

With CTTCAC, the binding signal worked out at 1.35.

TATACC had a binding signal of 1.22.

TGGGAA: the binding signal worked out at 1.06.

On to TACTCC, for which the binding signal worked out at 1.23.

On to AGAACT, for which the binding signal turned out to be 0.963.

Turning to TGATTT, the binding signal came out at 1.33.

With CCACTA, the binding signal was found to be 1.03.

On to AAGATT, for which the binding signal came to 1.17.

Regarding TCTACA, the binding signal was determined as 1.17.

Turning to TCCCGT, the binding signal was determined as 1.34.

The sequence TTCTGT gave a binding signal of 1.23.

Sequence CTCTCC returned a binding signal of 1.26.

As for CCGCTT, the binding signal was determined as 2.12.

As to AGATTA, the binding signal worked out at 0.997.

TCGCGA came in with a binding signal of 0.833.

The sequence TGGAAC displayed a binding signal of 0.95.

Take AGCATT: the binding signal stood at 1.06.

Turning to GACTCC, the binding signal stood at 1.24.

As to TTTTTT, the binding signal came out at 1.22.

TGACCC returned a binding signal of 1.36.

Source of the values: publication PMC7862700.
